Test results published in paper PMC6114981.

Chains of the proteins cited; added tags and fusions are not shown. Lines headed by an entry give the natural chain unless they say otherwise; changes in a name come on top.
UniProt P11474: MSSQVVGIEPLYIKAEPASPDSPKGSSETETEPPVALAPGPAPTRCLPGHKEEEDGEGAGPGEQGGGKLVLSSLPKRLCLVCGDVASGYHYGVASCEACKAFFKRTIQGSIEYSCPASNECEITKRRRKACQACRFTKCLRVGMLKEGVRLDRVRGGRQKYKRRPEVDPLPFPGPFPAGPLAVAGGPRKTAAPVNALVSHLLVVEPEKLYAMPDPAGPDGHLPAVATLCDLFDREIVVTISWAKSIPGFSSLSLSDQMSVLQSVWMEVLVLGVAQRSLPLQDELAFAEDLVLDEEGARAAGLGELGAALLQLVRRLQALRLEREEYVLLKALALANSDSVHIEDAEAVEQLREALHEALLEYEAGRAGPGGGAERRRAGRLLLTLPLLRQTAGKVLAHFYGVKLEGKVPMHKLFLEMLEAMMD
UniProt Q01469: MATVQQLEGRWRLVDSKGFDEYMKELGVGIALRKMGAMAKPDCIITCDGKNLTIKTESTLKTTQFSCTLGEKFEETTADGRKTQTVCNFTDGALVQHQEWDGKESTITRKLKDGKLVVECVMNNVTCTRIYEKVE

B1: peroxisome proliferator-activated receptor gamma coactivator 1-beta (PGC-1β), endogenous in PC-3 cells (protein, UniProt Q86YN6 1-1023)
chain: MAGNDCGALLDEELSSFFLNYLADTQGGGSGEEQLYADFPELDLSQLDASDFDSATCFGELQWCPENSETEPNQYSPDDSELFQIDSENEALLAELTKTLDDIPEDDVGLAAFPALDGGDALSCTSASPAPSSAPPSPAPEKPSAPAPEVDELSLLQKLLLATSYPTSSSDTQKEGTAWRQAGLRSKSQRPCVKADSTQDKKAPMMQSQSRSCTELHKHLTSAQCCLQDRGLQPPCLQSPRLPAKEDKEPGEDCPSPQPAPASPRDSLALGRADPGAPVSQEDMQAMVQLIRYMHTYCLPQRKLPPQTPEPLPKACSNPSQQVRSRPWSRHHSKASWAEFSILRELLAQDVLCDVSKPYRLATPVYASLTPRSRPRPPKDSQASPGRPSSVEEVRIAASPKSTGPRPSLRPLRLEVKREVRRPARLQQQEEEDEEEEEEEEEEEKEEEEEWGRKRPGRGLPWTKLGRKLESSVCPVRRSRRLNPELGPWLTFADEPLVPSEPQGALPSLCLAPKAYDVERELGSPTDEDSGQDQQLLRGPQIPALESPCESGCGDMDEDPSCPQLPPRDSPRCLMLALSQSDPTFGKKSFEQTLTVELCGTAGLTPPTTPPYKPTEEDPFKPDIKHSLGKEIALSLPSPEGLSLKATPGAAHKLPKKHPERSELLSHLRHATAQPASQAGQKRPFSCSFGDHDYCQVLRPEGVLQRKVLRSWEPSGVHLEDWPQQGAPWAEAQAPGREEDRSCDAGAPPKDSTLLRDHEIRASLTKHFGLLETALEEEDLASCKSPEYDTVFEDSSSSSGESSFLPEEEEEEGEEEEEDDEEEDSGVSPTCSDHCPYQSPPSKANRQLCSRSRSSSGSSPCHSWSPATRRNFRCESRGPCSDRTPSIRHARKRREKAIGEGRVVYIQNLSSDMSSRELKRRFEVFGEIEECEVLTRNRRGEKYGFITYRCSEHAALSLTKGAALRKRNEPSFQLSYGGLRHFCWPRYTDYDSNSEEALPASGKSKYEAMDFDSLLKEAQQSLH

What was measured:
Test in all cases: pull-down; GST or GST-ERRα (wt, Δ300aa, Δ398aa) incubated with PC-3 whole cell lysates and glutathione sepharose overnight at 4°C; washed three times with 50 mM Tris-HCl pH 7.5, 150 mM NaCl, 0.05% Tween20; western blot for GST, FABP5 and PGC-1β; only the target purified
[1] = molecular target: GST-ERRα Δ300aa (deletion mutant lacking the ligand-binding domain) (human) (UniProt P11474)
[2] = molecular target: GST-ERRα Δ398aa (deletion mutant lacking the activation function 2 domain) (human) (UniProt P11474)
[3] = molecular target: GST-ERRα Δ300aa (deletion mutant lacking the ligand-binding domain) (human) (UniProt P11474); remark: listed apart in the source

Row | Molecule | binding [1] | binding [2] | binding [3]
1 | fatty acid-binding protein 5 (FABP5), endogenous in PC-3 cells (from UniProt Q01469 1-135) | no binding | binds weakly | –
2 | B1 | – | – | no binding

Where two headings read alike, the source gives them in different places. No constants are given. Whether binding was seen depends on the method and setting. In cells and extracts the contact can be indirect. For part of these data: Binding can be weak; no strength is given.
